ChEMBL document CHEMBL1140143, “Combining ligand-based pharmacophore modeling, quantitative structure-activity relationship analysis and in silico screening for the discovery of new potent hormone sensitive lipase inhibitors” (J Med Chem, 2008)

Biological target: T1, Hormone-sensitive lipase (Rattus norvegicus, UniProt P15304)
T1 sequence (P15304 whole entry): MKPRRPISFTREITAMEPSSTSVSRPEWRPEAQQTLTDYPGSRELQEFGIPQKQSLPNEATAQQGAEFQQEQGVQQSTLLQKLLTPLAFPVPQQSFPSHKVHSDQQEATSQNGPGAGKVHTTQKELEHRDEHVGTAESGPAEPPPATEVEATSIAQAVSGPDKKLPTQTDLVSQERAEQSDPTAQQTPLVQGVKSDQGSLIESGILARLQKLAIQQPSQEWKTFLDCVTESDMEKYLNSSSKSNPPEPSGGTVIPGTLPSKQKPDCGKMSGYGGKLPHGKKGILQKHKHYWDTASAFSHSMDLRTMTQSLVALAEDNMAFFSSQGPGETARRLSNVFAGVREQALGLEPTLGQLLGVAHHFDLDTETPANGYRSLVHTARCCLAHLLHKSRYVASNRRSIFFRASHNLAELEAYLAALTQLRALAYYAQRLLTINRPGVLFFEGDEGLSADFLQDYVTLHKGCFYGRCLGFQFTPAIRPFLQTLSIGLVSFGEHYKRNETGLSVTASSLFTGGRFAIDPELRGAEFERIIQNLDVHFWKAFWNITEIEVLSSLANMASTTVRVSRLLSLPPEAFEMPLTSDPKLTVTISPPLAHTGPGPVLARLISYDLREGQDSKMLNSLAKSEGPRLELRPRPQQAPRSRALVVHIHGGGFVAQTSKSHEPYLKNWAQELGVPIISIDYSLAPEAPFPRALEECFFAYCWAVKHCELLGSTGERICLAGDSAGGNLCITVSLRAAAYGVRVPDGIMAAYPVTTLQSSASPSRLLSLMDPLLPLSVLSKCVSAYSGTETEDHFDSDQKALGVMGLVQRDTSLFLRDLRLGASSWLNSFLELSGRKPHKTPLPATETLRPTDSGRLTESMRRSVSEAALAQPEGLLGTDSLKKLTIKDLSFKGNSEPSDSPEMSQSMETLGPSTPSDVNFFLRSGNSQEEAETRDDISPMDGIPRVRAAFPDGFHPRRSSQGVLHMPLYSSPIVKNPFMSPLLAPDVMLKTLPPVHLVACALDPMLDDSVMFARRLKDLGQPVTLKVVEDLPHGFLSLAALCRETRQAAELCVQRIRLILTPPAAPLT
Assay: Inhibition of HSL in Wistar rat isolated fat cells by spectrophotometric assay

IC50: 1.2 µM
Compound: COc1ccc2cc([C@H](C)C(=O)O)ccc2c1 [NAPROXEN]
